Reference: patent US7642252B2, “Angiogenesis inhibition by cephalotaxine alkaloids, derivatives, compositions and uses thereof” (Chemgenex Pharmaceuticals, Inc., priority 2002, dated 2010)
At least one structure is not confirmed: it was looked up by name or label, or the drawing left a doubt.

Tested on: chorioallantoic membrane (CAM)
Test: Early chicken chorioallantoic membrane (CAM) assay of angiogenesis
Format: in vivo
Method: Fertilized chicken eggs (HiChick Breeding Co, Kapunda, South Australia) were incubated for three days at 38° C. On Day 3 the embryos were cracked out of the egg and into a cup made of plastic piping, with plastic film stretched over the top to form a hammock for the egg to be suspended in. Two ml of DMEM containing penicillin and streptomycin was added to each cup prior to the egg being added. A Petri dish on the top maintained sterility. Incubation continued in a humidified 37° C. incubator.
On Day 4 the chorioallantoic membrane (CAM) begins to grow, and pictures were taken of each embryo at ×5 to measure the CAM area using image analysis software (Video Pro 32, Leading Edge Pty Ltd, South Australia). Embryos were then grouped according to their CAM area, with a control embryo in each for comparison. There were four matched embryos, treated with 6.25, 12.5 and 25 ng of homoharringtonine. Grouping is critical as in these early developmental stages changes in the CAM growth are dramatic. Relatively small differences in size on Day 4 translate to large differences in the CAM on Day 5, making it impossible to compare treatments. Substances were applied in methylcellulose discs, which were first dried under vacuum overnight. The methylcellulose discs were applied to the top of the CAM, and at the beginning of treatment were at least three to four-fold bigger than the CAM area, meaning treatment covered the entire CAM surface.
On Day 5 skim milk with contrast medium was injected into the CAM. Pictures were then taken at various levels of magnification up to ×63. Quantitative measurements were made from ×5 pictures. CAM area, and vein and artery lengths were measured using image analysis (Video Pro 32, Leading Edge Pty Ltd, South Australia). Relative vessel lengths were then calculated as the total length/CAM area. Statistical analysis was made using SigmaStat and OneWay ANOVA with p<0.05 as the level of significance.
The normal organization of the CAM is uniform, with the major vein draining towards the left, and the artery branches coming over the edge of the top and bottom of the CAM. FIG. 3 schematically illustrates tracing of the vein and artery branches, as performed for the measurement of vessel lengths.
The angiogenic inhibitor, homoharringtonine, was obtained from ChemGenex Therapeutics, Inc. (Menlo Park, Calif.) and was made to the appropriate concentration in sterile water. […] Homoharringtonine was applied at 6.25, 12.5 and 25 ng (11.3, 22.5 and 45 nM) doses, and compared with water treated controls. Homoharringtonine reduced the growth of the CAM to 42% of the control in the 25 ng treated CAM. […] The vein, artery and total vessel lengths were reduced to 15%, 18% and 17% of control, respectively.

COC(=O)C[C@](O)(CCCC(C)(C)O)C(=O)O[C@@H]1C(OC)=C[C@]23CCCN2CCc2cc4c(cc2[C@H]13)OCO4 [Homoharringtonine, cephalotaxine, 4-methyl-2-hydroxy-2-(4-hydroxy-4-methylpentyl) butanediocate ester]
Qualitative changes of CAM vessels (FIG. 4) (12.5 ng): general reduction in vessels without a great deal of disturbance in the organization
Qualitative changes of CAM vessels (FIG. 4) (25 ng): only fine vestigial blood vessels remaining, and blood vessel development almost completely blocked
Qualitative changes of CAM at higher magnification (FIG. 5) (25 ng homoharringtonine treated CAM vs water control): dramatic reduction in blood flow, with only a few fine vessels in the field carrying red blood cells
Qualitative changes of CAM vessels (FIG. 4) (lowest dose (6.25 ng)): the CAM is smaller and the normal vessel organization disturbed
Effect on blood vessels of the CAM (overall statement, FIG. 4): significant reduction in blood vessels
